These are yes or no findings as the source states them, for the method shown. Binding can be weak; no strength is given.
Assays:
[1] = biological target: BBK32, full-length lipoprotein expressed in B. burgdorferi strain B314 (B314/pCD100) (Borrelia burgdorferi) (UniProt O50835); assay: far-Western, overlay or dot blot; whole cell lysates of B. burgdorferi B314 strains resolved by SDS-PAGE on PVDF, probed with biotinylated C1 or C1r at 1 ug/ml in PBS, 0.2% Tween-20 overnight at 4 °C, IRDye streptavidin; densitometry normalised to FlaB and to BBK32; only the binder purified
[2] = biological target: BAD16-C (residues 204-352, B. afzelii strain PGau) (Borrelia afzelii strain PGau); assay: SPR; Biacore T200, 25 °C, BBK32-C, BGD19-C or BAD16-C amine-coupled; C1r as analyte, single-cycle kinetics, five-fold dilution series 1.6 to 1000 nM, HBS-T with 5 mM CaCl2; 1:1 Langmuir fit; both purified
[3] = biological target: BGD19-C (residues 206-354, B. garinii strain IP90) (Borrelia garinii strain IP90); assay: as above

Chains of the proteins cited; added tags and fusions are not shown. Lines headed by an entry give the natural chain unless they say otherwise; changes in a name come on top.
UniProt O50835: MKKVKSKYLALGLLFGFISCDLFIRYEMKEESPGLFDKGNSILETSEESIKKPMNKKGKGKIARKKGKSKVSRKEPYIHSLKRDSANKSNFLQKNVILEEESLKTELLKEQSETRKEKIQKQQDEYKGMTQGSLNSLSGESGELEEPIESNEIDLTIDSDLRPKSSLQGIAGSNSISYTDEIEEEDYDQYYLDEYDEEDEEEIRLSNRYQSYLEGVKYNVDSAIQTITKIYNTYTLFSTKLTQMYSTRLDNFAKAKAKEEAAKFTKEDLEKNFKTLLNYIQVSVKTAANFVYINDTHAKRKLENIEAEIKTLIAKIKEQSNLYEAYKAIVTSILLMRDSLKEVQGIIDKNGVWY

B1: biotinylated human C1r (enzyme, UniProt P00736 18-705)
chain: SIPIPQKLFGEVTSPLFPKPYPNNFETTTVITVPTGYRVKLVFQQFDLEPSEGCFYDYVKISADKKSLGRFCGQLGSPLGNPPGKKEFMSQGNKMLLTFHTDFSNEENGTIMFYKGFLAYYQAVDLDECASRSKSGEEDPQPQCQHLCHNYVGGYFCSCRPGYELQEDTHSCQAECSSELYTEASGYISSLEYPRSYPPDLRCNYSIRVERGLTLHLKFLEPFDIDDHQQVHCPYDQLQIYANGKNIGEFCGKQRPPDLDTSSNAVDLLFFTDESGDSRGWKLRYTTEIIKCPQPKTLDEFTIIQNLQPQYQFRDYFIATCKQGYQLIEGNQVLHSFTAVCQDDGTWHRAMPRCKIKDCGQPRNLPNGDFRYTTTMGVNTYKARIQYYCHEPYYKMQTRAGSRESEQGVYTCTAQGIWKNEQKGEKIPRCLPVCGKPVNPVEQRQRIIGGQKAKMGNFPWQVFTNIHGRGGGALLGDRWILTAAHTLYPKEHEAQSNASLDVFLGHTNVEELMKLGNHPIRRVSVHPDYRQDESYNFEGDIALLELENSVTLGPNLLPICLPDNDTFYDLGLMGYVSGFGVMEEKIAHDLRFVRLPVANPQACENWLRGKNRMDVFSQNMFCAGHPSLKQDACQGDSGGVFAVRDPNTDRWVATGIVSWGIGCSRGYGFYTKVLNYVDWIKKEMEEED
modifications: biotin (sites not told)
- binding [1]: binds

B2: human C1r, full-length enzyme (enzyme, UniProt P00736 18-705)
chain: B1 chain
- binding [2]: binds
- binding [3]: binds
